Some of the results follow. These are further read-outs of the screen, such as a control signal, another cell line or another target. No call is given for them. Compounds called inactive in the main read-out are mostly missing here. Potencies come from curve fits of mixed quality, noted in brackets.
Assay: qHTS Assay for Modulators of Lamin A Splicing
Conditions: HeLa LMNA splicing GFP/RFP minigene ratio, 48 h
How it was run: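 S3 HeLa stable clones carrying a lamin A-EGFP splicing minigene plus DsRed2 were seeded at 600 cells/well in Opti-MEM with 2% FBS, pin-dosed and incubated 48 h at 37°C. Acumen cytometry (488 nm) gave the GFP/RFP total-intensity ratio.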

[1] = measured here: RFP viability control channel
[2] = measured here: GFP splicing reporter channel

Row | Compound | AC50 [1] | AC50 [2]
1 | O=C(NCCn1cc(SCc2ccc(F)cc2)c2ccccc21)c1c(F)cccc1F | 31.6 µM [rising, single point] | –
2 | CC1(c2ccccc2)NC(=O)N(CC(=O)Nc2cccc(C#N)c2)C1=O (stereo unspecified) | – | 25.1 µM [rising, single point]
3 | COc1ccc(NC(=S)N2CCN(c3ccccn3)CC2)cc1 | 22.4 µM [rising, partial curve, poor fit] | –
4 | CCCCCOc1ccc(Cn2ccnc2)cc1[N+](=O)[O-] | 22.4 µM [rising, partial curve] | 12.6 µM [rising, partial curve]
5 | COc1cc(NC(=O)c2cc(-c3cccnc3)nc3ccc(Br)cc23)cc(OC)c1 | – | 0.00891 µM [falling, full curve, poor fit]
6 | COc1ccc(C)cc1S(=O)(=O)Nc1ccc(F)cc1 | 0.0398 µM [falling, full curve] | –
7 | CSc1ccc(/C=N/N2CCN(c3ccccc3)CC2)cc1 | 2 µM [rising, partial curve, poor fit] | –
8 | Cc1ccc(-c2nn3c(C)nnc3c3ccccc23)cc1S(=O)(=O)N1CCN(CCO)CC1 | 14.1 µM [rising, single point] | 12.6 µM [rising, single point]
9 | COc1cc2c(cc1O)C(SC)=NC(C)(C)C2 | 17.8 µM [falling, single point] | 14.1 µM [falling, single point]
10 | O=C(CSc1nnc(-c2ccc(F)cc2)c2ccccc12)NCC1CCCO1 (stereo unspecified) | 12.6 µM [rising, partial curve] | –
11 | S=C(Nc1ccc(Cl)c(Cl)c1)NC1CCCCC1 | 25.1 µM [rising, single point] | –
12 | CCOc1ccccc1NS(=O)(=O)c1ccc(Br)s1 | 35.5 µM [rising, single point] | 22.4 µM [rising, single point]
13 | Cc1c(Cl)c(-c2n[nH]c(=S)n2CC(C)C)nn1C | 31.6 µM [rising, single point] | –
14 | COC(=O)c1sccc1NC(=S)N1CCN(c2ccccc2)CC1 | 35.5 µM [rising, single point] | –
15 | Cc1nc(-c2cccc(NC(=O)Cc3ccccc3)c2)cs1 | 35.5 µM [rising, partial curve, poor fit] | –
16 | Cc1ccsc1/C=N\NC(=O)c1n[nH]c2c1CCC2 | 2.51 µM [rising, full curve, poor fit] | –
17 | COC(=O)c1sccc1NC(=O)c1ccc(OC)cc1 | 11.2 µM [rising, partial curve] | –
18 | COc1cc(Cl)c(C)cc1NC(=O)c1cc2ccc3cccnc3c2[nH]1 | 20 µM [falling, partial curve, poor fit] | 22.4 µM [falling, partial curve]

One compound at a time, from the list above. Values in the order: AC50 [1] | AC50 [2]
COc1cc(Cl)c(C)cc1NC(=O)c1cc2ccc3cccnc3c2[nH]1 in the list: 20 µM [falling, partial curve, poor fit] | 22.4 µM [falling, partial curve]
O=C(CSc1nnc(-c2ccc(F)cc2)c2ccccc12)NCC1CCCO1 (stereo unspecified) in the list: 12.6 µM [rising, partial curve] | –

Continuation.

Row | Compound | AC50 [1] | AC50 [2]
19 | Cc1cccnc1NC(=O)COc1ccc2oc3c(c2c1)CCCC3 | 17.8 µM [rising, single point] | –
20 | CO[C@H]1[C@H](O[C@H]2O[C@@H](C)[C@@H](O[C@@H]3C[C@](C)(O)[C@H](OC(=O)CC(C)C)[C@H](C)O3)[C@@H](N(C)C)[C@@H]2O)[C@@H](CC=O)C[C@@H](C)[C@@H](O)/C=C\C=C/C[C@@H](C)OC(=O)C[C@H]1OC(C)=O | – | 0.000398 µM [falling, full curve, poor fit]
21 | NNC(=O)c1cc(-c2ccc(O)cc2)nc2ccc(Br)cc12 | 35.5 µM [falling, single point] | –
22 | Cc1ccc(-n2c(SCC(=O)Nc3ccc4c5c(cccc35)CC4)nc(O)c(C)c2=O)cc1 | 11.2 µM [rising, partial curve, poor fit] | 11.2 µM [rising, partial curve, poor fit]
23 | CN1CCc2cc(Cl)c(O)cc2C(c2ccccc2)C1 (stereo unspecified) | – | 0.0794 µM [falling, full curve, poor fit]
24 | C=CC[C@@H]1C=C[C@H](O/N=C/c2ccc(C(=O)N3[C@H](c4ccc(C)cc4)[C@@H](C)CC[C@H]3C(=O)OC)cc2)[C@@H](CO)O1 | 31.6 µM [rising, single point] | –
25 | COc1ccccc1Nc1nc(-c2sc(NC(=O)c3ccco3)nc2C)cs1 | 1.41 µM [falling, partial curve, poor fit] | 1.26 µM [falling, full curve, poor fit]
26 | O=C(NCc1ccc(F)cc1)Nc1cccc(Cl)c1 | – | 10 µM [falling, partial curve]
27 | Cc1ccccc1NC(=O)c1cccc(OCc2c(C)noc2C)c1 | 35.5 µM [rising, single point] | 20 µM [rising, partial curve]
28 | CCSc1nc2sc3c(c2c(=O)n1CC)CC(C)(C)OC3 | – | 0.447 µM [rising, full curve, poor fit]
29 | COc1ccc(/C=N/NC(=O)c2cc(-c3ccc4c(c3)OCO4)n[nH]2)cc1OC | 12.6 µM [rising, partial curve] | –
30 | CCCCCOP(=O)(OCCCCC)C1(NS(=O)(=O)c2ccccc2)C=CC(=O)c2ccccc21 (stereo unspecified) | 35.5 µM [rising, single point] | –
31 | CC1=C(C(=O)OC(C)C)C(c2ccc(Br)s2)NC(=O)N1C (stereo unspecified) | 12.6 µM [rising, single point] | –
32 | Cc1ccc(C)c(N(C)S(=O)(=O)c2cccc3nsnc23)c1 | 14.1 µM [rising, single point] | 25.1 µM [rising, single point]
33 | CC(C)=CCCC(C)CN1CCC(N2CCC(C(=O)N3CCCC3)CC2)CC1 (stereo unspecified) | 35.5 µM [falling, single point] | 28.2 µM [falling, single point]
34 | NS(=O)(=O)c1ccc(NC(=S)N2CCN(c3ccccc3Cl)CC2)cc1 | 25.1 µM [rising, single point] | 12.6 µM [rising, partial curve]
35 | C/C(=N\NC(=O)c1ccc(N(C)C)cc1)c1ccc(C)cc1C | 1.41 µM [rising, partial curve] | –

— PubChem BioAssay AID1487 (National Center for Advancing Translational Sciences (NCATS), 2009)
